Tests used:
PhiX [1] = assay: Sequencing by synthesis on Illumina iSeq 100 instrument, glycine incorporation mix, palladium cleavage solution; conditions: for Error Rate (%): PhiX
PhiX [2] = assay: Sequencing by synthesis on Illumina iSeq 100 instrument, standard SBS cycle, ethanolamine incorporation mix; conditions: 2×300 cycles; for Error Rate (%): PhiX

C=CCOCOC1C[C@H](n2cc(C#CCNC(=O)COC(COc3cccc(C(=O)NCCCCCNC(=O)CCCN4CCCc5cc6c(cc54)OCc4cc5cc(OC)c(OC)cc5[n+](C)c4-6)c3)OCC=C)c3c(N)ncnc32)O[C@@H]1COP(=O)(O)OP(=O)(O)OP(=O)(O)O (some centres unmarked) [ffA-AOM-AOL-I-4]
% Q30 (PhiX [1]; 150 cycles, Read 1): 92.84%
Phasing (PhiX [1]; 150 cycles, Read 1): 0.156
Preptlasing (PhiX [1]; 150 cycles, Read 1): 0.059
% Q30 (PhiX [1]; 150 cycles, Read 2): 91.16%
Phasing (PhiX [1]; 150 cycles, Read 2): 0.197
Preptlasing (PhiX [1]; 150 cycles, Read 2): 0.07
% Q30 (PhiX [1]; 300 cycles, Read 1): 93.05%
Phasing (PhiX [1]; 300 cycles, Read 1): 0.128
Preptlasing (PhiX [1]; 300 cycles, Read 1): 0.064
% Q30 (PhiX [1]; 300 cycles, Read 2): 90.9%
Phasing (PhiX [1]; 300 cycles, Read 2): 0.142
Preptlasing (PhiX [1]; 300 cycles, Read 2): 0.053
Error Rate (%) (PhiX [1]; 150 cycles, Read 1): 0.53%
Error Rate (%) (PhiX [1]; 150 cycles, Read 2): 0.53%
Error Rate (%) (PhiX [1]; 300 cycles, Read 1): 0.74%
Error Rate (%) (PhiX [1]; 300 cycles, Read 2): 0.65%

COc1cc2cc3c([n+](C)c2cc1OC)-c1cc2c(cc1OC3)N(CCCC(=O)NCCCCCNC(=O)c1cccc(OCC(N=[N+]=[N-])OCC(=O)NCC#Cc3cn([C@H]4CC(OCN=[N+]=[N-])[C@@H](COP(=O)(O)OP(=O)(O)OP(=O)(O)O)O4)c4ncnc(N)c34)c1)CCC2 (some centres unmarked) [ffA-sPA-LN3-I-4]
% Q30 (PhiX [2]; Read 1): 91.49%
% Q30 (Last 10 Cycles) (PhiX [2]; Read 1): 72.75%
Phasing (PhiX [2]; Read 1): 0.111
Prephasing (PhiX [2]; Read 1): 0.129
% Q30 (PhiX [2]; Read 2): 85.57%
% Q30 (Last 10 Cycles) (PhiX [2]; Read 2): 55.56%
Phasing (PhiX [2]; Read 2): 0.11
Prephasing (PhiX [2]; Read 2): 0.141
Error Rate (%) (PhiX [2]; Read 1): 0.81%
Error Rate (%) (PhiX [2]; Read 2): 1.01%
